Values of other authors as cited in US20050182029A1, “Metformin salts of lipophilic acids” (Sonus Pharmaceuticals, Inc., priority 2002, published 2005).

Details: 95% relative humidity (25° C.), at 6 hours

## CN(C)C(=N)NC(=N)N.Cl [Metformin hydrochloride, N,N-dimethylimidodicarbonimidic diamide hydrochloride]
  hygroscopicity, moisture uptake: greater than 20%
